# Data: patent US7271239B2, “D-isomers of antimicrobial peptide” (The Research Foundation of State University of New York, priority 2004, dated 2007)
# Part of at least one peptide drawing is inferred or uncertain, most often the ends. Where a SMILES comes first, the peptide text is derived from it. Where no end group is shown, it is not given here. [ ]: non-standard residue; d: D form.
# Columns and labels:
# E. coli HB101 = assay type: cell-based, Escherichia coli
# Description: (§1) The bacteria used in this study included Streptococcus mutans ATCC10449, Streptococcus mutans AU 159, Streptococcus mutans GS-5, Streptococcus mutans GS-5 mutant (^gtf BCD), Streptococcus gordonii Challis, Porphyromonas gingivalis W50, Porphyromonas gingivalis 381, A. actinomycetemcomitans NCTC 9710, Pseudomonas aeruginosa ATCC 17648, and Escherichia coli HB101. One quarter strength (25%) of brain heart infusion broth (BHI, DIFCO Laboratories, Detroit, Mich.) was used for the growth of S. mutans, S. gordonii, A. actinomycetemcomitans, Ps. aeruginosa, and E. coli. For growth of P. gingivalis, tryptic soy broth-yeast extract medium (TSBY, DIFCO Laboratories, Detroit, Mich.) supplemented with cysteine hydrochloride (0.05%), menadione (0.02 μg/ml), hemin (5 μg/ml), and potassium nitrate (0.02%) was used. All bacteria were cultured at 37° C.; Ps. aeruginosa and E. coli were grown aerobically, and the other bacteria, anaerobically. To prepare bacterial cell suspension for antibacterial activity assays, each overnight culture was harvested by centrifuge (3783 g, 10 min), washed once with 10 mM sodium phosphate-buffered saline (PBS, pH 7.2), resuspended in PBS and adjusted to a concentration of 1×10^6 cells/mL.
# (§2) MICs of the peptides were determined by broth microdilution method as previously described (5). Briefly, two-fold serial dilutions of each peptide were prepared with 25% BHI medium at a volume of 200 μl per well in 96-well flat-bottom microtiter plates (Costar, Cambridge, Mass.). The final concentration of the peptides ranged from 0.78 to 100 μM, and chlorhexidine (CHX), used as a positive control, from 20 to 0.16 μM (10 to 0.078 μg/mL). The microtiter plate was inoculated with bacterial cell suspension with final concentration of 5×10^6 CFU/mL for P. gingivalis and 5×10^5 CFU/mL for the other bacterial species. After incubation at 37° C. for 48 h, the absorbance was measured at 595 nm by using a microplate reader (Model 3550, Bio-Rad, Japan) to assess the cell growth. […] The MIC value represents the median of at least three independent experiments. The minimal bactericidal concentration (MBC) was determined as follows. Aliquot (100 μl) of cell suspension was taken from two wells above MIC, centrifuged, and washed three times with PBS. Then each cell suspension was plated on TSBY agar plate, and bacterial cells were enumerated after incubation at 37° C. for 48 h. The MBC was defined as the lowest concentration of the peptide at which more than 99.9% of cells were killed compared to non-treated control.
# S. mutans = conditions: median of four strains
# Description: as §1, §2
Molecule,MBC (E. coli HB101) [µg/mL],MIC (E. coli HB101) [µg/mL],MBC (S. mutans) [µg/mL],MIC (S. mutans) [µg/mL]
CC(C)C[C@@H](NC(=O)[C@@H](CS)NC(=O)[C@@H](CCCCN)NC(=O)[C@@H](Cc1ccc(O)cc1)NC(=O)[C@@H](CO)NC(=O)[C@@H](CCCCN)NC(=O)[C@H](N)CCCNC(=N)N)C(=O)N[C@H](Cc1c[nH]cn1)C(=O)N[C@H](CCCCN)C(=O)N[C@H](CCCNC(=N)N)C(=O)N[C@H](CS)C(=O)N[C@H](CCCNC(=N)N)C(=O)O [MUC7 12-mer-D] (H-[dR][dK][dS][dY][dK][dC][dL][dH][dK][dR][dC][dR]-OH; N-terminus and C-terminus assumed),19.7,19.7,19.7,19.7
AKRHHGYKRKFH [Hsn5 12-mer],158.0,158.0,79.0,39.5
CC(C)C[C@H](NC(=O)[C@H](CS)NC(=O)[C@H](CCCCN)NC(=O)[C@H](Cc1ccc(O)cc1)NC(=O)[C@H](CO)NC(=O)[C@H](CCCCN)NC(=O)[C@@H](N)CCCNC(=N)N)C(=O)N[C@@H](Cc1c[nH]cn1)C(=O)N[C@@H](CCCCN)C(=O)N[C@@H](CCCNC(=N)N)C(=O)N[C@@H](CS)C(=O)N[C@@H](CCCNC(=N)N)C(=O)O [MUC7 12-mer-L] (H-RKSYKCLHKRCR-OH; N-terminus and C-terminus assumed),39.5,39.5,19.7,19.7
